The list shows a part of the results.
Key:
Test in all cases: glycan array binding signal (z-score within array); higher = stronger binding
Conditions in all cases: glycan notation: IUPAC condensed, linker removed
[1] = target: Fuc(a1-2)Gal
In short: (§1)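 Columns mapping to the same glycan were averaged after glycan names were converted to IUPAC-condensed notation. The data come from 3228 arrays in the Consortium for Functional Glycomics database, limited to those with an available protein sequence. Binding is reported as a within-array Z-score averaged across arrays of one protein sequence and across linkers.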

[2] = target: Fuc(a1-2)Gal(b1-3)GalNAc
In short: as §1

[3] = target: Fuc(a1-2)Gal(b1-3)GalNAc(a1-3)[Fuc(a1-2)]Gal(b1-4)Glc
In short: as §1

[4] = target: Fuc(a1-2)Gal(b1-3)GalNAc(a1-3)[Fuc(a1-2)]Gal(b1-4)GlcNAc
In short: as §1

[5] = target: Fuc(a1-2)Gal(b1-3)GalNAc(b1-3)Gal
In short: as §1

[6] = target: Fuc(a1-2)Gal(b1-3)GalNAc(b1-3)Gal(a1-4)Gal(b1-4)Glc
In short: as §1

[7] = target: Fuc(a1-2)Gal(b1-3)GalNAc(b1-4)[Neu5Ac(a2-3)]Gal(b1-4)Glc
In short: as §1

[8] = target: Fuc(a1-2)Gal(b1-3)GlcNAc
In short: as §1

[9] = target: Fuc(a1-2)Gal(b1-3)GlcNAc(b1-2)Man(a1-3)[Fuc(a1-2)Gal(b1-3)GlcNAc(b1-2)Man(a1-6)]Man(b1-4)GlcNAc(b1-4)GlcNAc
In short: as §1

[10] = target: Fuc(a1-2)Gal(b1-3)GlcNAc(b1-2)Man(a1-3)[Fuc(a1-2)Gal(b1-3)GlcNAc(b1-2)Man(a1-6)]Man(b1-4)GlcNAc(b1-4)[Fuc(a1-6)]GlcNAc
In short: as §1

[11] = target: Fuc(a1-2)Gal(b1-3)GlcNAc(b1-3)Gal(b1-4)Glc
In short: as §1

[12] = target: Fuc(a1-2)Gal(b1-3)GlcNAc(b1-3)GalNAc
In short: as §1

[13] = target: Fuc(a1-2)Gal(b1-3)GlcNAc(b1-3)[Fuc(a1-2)Gal(b1-3)GlcNAc(b1-6)]GalNAc
In short: as §1

[14] = target: Fuc(a1-2)Gal(b1-3)GlcNAc(b1-3)[Fuc(a1-3)[Gal(b1-4)]GlcNAc(b1-6)]Gal(b1-4)Glc
In short: as §1

[15] = target: Fuc(a1-2)Gal(b1-3)GlcNAc(b1-3)[Gal(b1-4)GlcNAc(b1-6)]Gal(b1-4)Glc
In short: as §1

[16] = target: Fuc(a1-2)Gal(b1-3)GlcNAc(b1-3)[Neu5Ac(a2-6)Gal(b1-4)GlcNAc(b1-6)]Gal(b1-4)Glc
In short: as §1

[17] = target: Fuc(a1-2)Gal(b1-3)GlcNAc6S
In short: as §1

[18] = target: Fuc(a1-2)Gal(b1-3)[Fuc(a1-4)]GlcNAc
In short: as §1

[19] = target: Fuc(a1-2)Gal(b1-3)[Fuc(a1-4)]GlcNAc(b1-2)Man(a1-3)[Fuc(a1-2)Gal(b1-3)[Fuc(a1-4)]GlcNAc(b1-2)Man(a1-3)]Man(b1-4)GlcNAc(b1-4)GlcNAc
In short: as §1

[20] = target: Fuc(a1-2)Gal(b1-3)[Fuc(a1-4)]GlcNAc(b1-2)Man(a1-3)[Fuc(a1-2)Gal(b1-3)[Fuc(a1-4)]GlcNAc(b1-2)Man(a1-6)]Man(b1-4)GlcNAc(b1-4)GlcNAc
In short: as §1

[21] = target: Fuc(a1-2)Gal(b1-3)[Fuc(a1-4)]GlcNAc(b1-2)Man(a1-3)[Fuc(a1-2)Gal(b1-3)[Fuc(a1-4)]GlcNAc(b1-2)Man(a1-6)]Man(b1-4)GlcNAc(b1-4)[Fuc(a1-6)]GlcNAc(b1-4)[Fuc(a1-6)]GlcNAc
In short: as §1

[22] = target: Fuc(a1-2)Gal(b1-3)[Fuc(a1-4)]GlcNAc(b1-2)Man(a1-6)[Fuc(a1-2)Gal(b1-3)[Fuc(a1-4)]GlcNAc(b1-2)Man(a1-3)]Man(b1-4)GlcNAc(b1-4)[Fuc(a1-6)]GlcNAc
In short: as §1

[23] = target: Fuc(a1-2)Gal(b1-3)[Fuc(a1-4)]GlcNAc(b1-3)[Fuc(a1-3)[Gal(b1-4)]GlcNAc(b1-6)]Gal(b1-4)Glc
In short: as §1

[24] = target: Fuc(a1-2)Gal(b1-3)[Fuc(a1-4)]GlcNAc(b1-3)[Gal(b1-4)GlcNAc(b1-6)]Gal(b1-4)Glc
In short: as §1

[25] = target: Fuc(a1-2)Gal(b1-4)Fuc(a1-3)]GlcNAc(b1-2)Man(a1-3)[Fuc(a1-2)Gal(b1-4)[Fuc(a1-3)]GlcNAc(b1-2)Man(a1-6)]Man(b1-4)GlcNAc(b1-4)GlcNAc
In short: as §1

[26] = target: Fuc(a1-2)Gal(b1-4)Glc
In short: as §1

[27] = target: Fuc(a1-2)Gal(b1-4)Glc6S
In short: as §1

[28] = target: Fuc(a1-2)Gal(b1-4)GlcNAc
In short: as §1

[29] = target: Fuc(a1-2)Gal(b1-4)GlcNAc(b1-2)Man
In short: as §1

[30] = target: Fuc(a1-2)Gal(b1-4)GlcNAc(b1-2)Man(a1-3)[Fuc(a1-2)Gal(b1-4)GlcNAc(b1-2)Man(a1-6)]Man(b1-4)GlcNAc(b1-4)GlcNAc
In short: as §1

B1: LlpA1 (Pseudomonas fluorescens), Q4KHC3 (protein)
chain: MGSSHHHHHHSSGLVPRGSHMAWIRYDFTDNGSSVLPARYYMAPNQYLQSPNKRFKLLFQADGNLALYDGAQLAWVADQNTPFTNVSKGNKKDPMMVFMNYGFVLDDPLRGRIWSTTPSDPTMGSREDASLRAFTQVQDDGNIVTVDTIPHWYAPNGRVFTPAVGAAMIIGGTTELVPGQFYSAGEHSLVFQGDGNLVVYGPNSSVIWATYTQNKGGVRCVMQEDGNLVIYAANNGVVWQSGTGGHPGATIRLQANGSFTIVTERPVWARFGYTPTIKPPRVFYPDHKWKTGSYTWNNVF
Question: How did the “glycan array binding signal (z-score)” value [1] turn out when B1 was run?
Answer: Its value is -0.373.

Question: What about the “glycan array binding signal (z-score)” value [2] of the same binder?
Answer: The value was -0.757.

Question: What about the “glycan array binding signal (z-score)” value [3] of the same binder?
Answer: Its value is -0.573.

Question: What about the “glycan array binding signal (z-score)” value [4] of the same binder?
Answer: The value was 0.017.

Question: And the “glycan array binding signal (z-score)” value [5]?
Answer: Its value is -0.517.

Question: What about the “glycan array binding signal (z-score)” value [6] of the same binder?
Answer: Its value is -0.383.

Question: What about the “glycan array binding signal (z-score)” value [7] of the same binder?
Answer: The value was -0.274.

Question: And the “glycan array binding signal (z-score)” value [8]?
Answer: The value was 0.181.

Question: What about the “glycan array binding signal (z-score)” value [9] of the same binder?
Answer: The value was 3.75.

Question: And the “glycan array binding signal (z-score)” value [10]?
Answer: Its value is -0.133.

Question: And the “glycan array binding signal (z-score)” value [11]?
Answer: Its value is -0.433.

Question: What about the “glycan array binding signal (z-score)” value [12] of the same binder?
Answer: The value was -0.31.

Question: And the “glycan array binding signal (z-score)” value [13]?
Answer: The value was 0.443.

Question: What about the “glycan array binding signal (z-score)” value [14] of the same binder?
Answer: The value was 0.406.

Question: What about the “glycan array binding signal (z-score)” value [15] of the same binder?
Answer: Its value is 0.281.

Question: And the “glycan array binding signal (z-score)” value [16]?
Answer: Its value is -0.394.

Question: What about the “glycan array binding signal (z-score)” value [17] of the same binder?
Answer: Its value is 0.124.

Question: What about the “glycan array binding signal (z-score)” value [18] of the same binder?
Answer: Its value is -0.494.

Question: What about the “glycan array binding signal (z-score)” value [19] of the same binder?
Answer: Its value is 0.043.

Question: What about the “glycan array binding signal (z-score)” value [20] of the same binder?
Answer: Its value is 3.21.

Question: And the “glycan array binding signal (z-score)” value [21]?
Answer: Its value is 0.541.

Question: And the “glycan array binding signal (z-score)” value [22]?
Answer: Its value is 0.331.

Question: And the “glycan array binding signal (z-score)” value [23]?
Answer: The value was -0.146.

Question: What about the “glycan array binding signal (z-score)” value [24] of the same binder?
Answer: Its value is 0.091.

Question: What about the “glycan array binding signal (z-score)” value [25] of the same binder?
Answer: The value was 3.1.

Question: What about the “glycan array binding signal (z-score)” value [26] of the same binder?
Answer: The value was -0.283.

Question: And the “glycan array binding signal (z-score)” value [27]?
Answer: The value was 0.047.

Question: What about the “glycan array binding signal (z-score)” value [28] of the same binder?
Answer: Its value is -0.501.

Question: What about the “glycan array binding signal (z-score)” value [29] of the same binder?
Answer: Its value is -0.795.

Question: What about the “glycan array binding signal (z-score)” value [30] of the same binder?
Answer: The value was 0.8.

— the supplement of paper PMC8728848
